Reference: patent publication US20230035127A1, “CULTURE AND DIFFERENTIATION OF PLURIPOTENT STEM CELLS” (University of Maryland, College Park, priority 2021, published 2023)

Tested on: human eiPSCs
Test: RNA sequencing of eiPSC spheroids and cardiac spheroids
Type: cell-based
From the text: To investigate the mechanisms for the different outcomes when using different RI concentrations for culturing the eiPSC spheroids in 3D for cardiac differentiation, samples at various stages of the 3D culture and differentiation shown in FIG. 1 were collected and analyzed by RNA-sequencing (RNA-seq). The sample groups and their abbreviations are summarized in Table 1 including undifferentiated eiPSCs on day −2.5 (U), cardiac commitment on day 2.5 (C), cardiac maturation on day 13.5 (M), together with 2D monolayer colonies on day −4 (2D) as a common 2D undifferentiated control for both the 1 (one: […]) and 10 (ten: T) μM RI 3D culture. The raw data of RAN-seq were of high quality with an error rate of no more than 0.03%. The raw data passed quality control were then aligned for mapping to the reference (human genome) with a total mapping rate of 95.8±0.5%. Afterward, the gene expression level was calculated by the number of mapped reads, also known as fragments per kilobase of transcript per million mapped reads (FPKM). Moreover, the global transcriptome of different samples with cluster analysis and hierarchical clustering analysis was carried out with log10 (FPKM+1) on differentially expressed genes within all comparison groups and plotted as a heat-map (FIG. 6), showing the global gene expression pattern of samples together with the samples' hierarchies that match with the different stages of the different samples given in FIG. 1.
For RNA sequencing (RNA-Seq), total RNA was extracted from the eiPSC clumps from 2D culture on day −4 (termed as 2D) and spheroids collected on day −2.5 after 1.5 days in the 3D culture (termed as UO and UT for 1 μM and 10 μM RI conditions, respectively), day 2.5 (termed as CO and CT), and day 13.5 (termed as MO and MT). The DNase I from bovine pancreas was used to remove DNA in samples. The RNA concentration in the samples was measured with Nanodrop and the integrity and quality of RNAs in the samples were confirmed with the Nano RNA Bioanalyzer. Samples with RNA integrity number greater than 9 were used for the preparation of the next-generation sequencing library using the NEB Ultra Directional RNA library preparation kit. Pair-end sequencing was performed by the Illumina HiSeq2500 platform. RNA-seq sequencing data quality was verified by Novogene. Raw reads were mapped to the human reference genome version (hg38) and the gene expression level based on reads per kilobase of exon per million reads mapped for annotated genes was measured and normalized using the Cufflink program. Samples were compared in different combinations and genes with an expression change of more than 1.5 in |log2 fold change| were defined as differentially expressed genes (DEG). Different classes of genes were subjected to functional and pathway analysis with the Gene Ontology (GO) database.

`C[C@@H](N)[C@H]1CC[C@H](C(=O)Nc2ccncc2)CC1.Cl.Cl` (relative stereo) [RI, (+)-(R)-trans-4-(1-aminoethyl)-N-(4-pyridyl) cyclo-hexanecarboxamide dihydrochloride] was tested. Which “differentially expressed unique genes” value (CO: 1 μM RI, cardiac commitment, day 2.5) did it give?
Its value is 359.

And the “differentially expressed unique genes” value (CT: 10 μM RI, cardiac commitment, day 2.5)?
Its value is 103.

What about the “differentially expressed unique genes” value (MO: 1 μM RI, cardiac maturation, day 13.5) of the same compound?
Its value is 549.

And the “differentially expressed unique genes” value (MT: 10 μM RI, cardiac maturation, day 13.5)?
Its value is 521.

What about the “differentially expressed unique genes” value (UO: 1 μM RI, undifferentiated, day −2.5) of the same compound?
The value was 123.

What about the “differentially expressed unique genes” value (UT: 10 μM RI, undifferentiated, day −2.5) of the same compound?
The value was 173.
